Data from the supplement of paper PMC10331698.
± gives the standard deviation of the averaged measurements. Most entries show no effect beyond the scatter of the controls.

What was measured:
Assay in all cases: level (log10 ratio to DMSO vehicle control); higher = higher biomarker level / cell amount than vehicle control
[1] = compound: C=C(C)C(=O)OCCC(F)(F)C(F)(F)C(F)(F)C(F)(F)C(F)(C(F)(F)F)C(F)(F)F [(Perfluoro-5-methylhexyl)ethyl 2-methylprop-2-enoate]; details: in DMSO
Description: (§1)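 BioMAP Diversity Plus panel of 12 human primary cell co-culture systems (3C, 4H, LPS, SAg, BT, BF4T, BE3C, CASM3C, HDF3CGF, KF3CT, MyoF, Mphg). Compounds were added 1 h before stimulation and left for 24 h (MyoF 48 h; BT 72 h for soluble read-outs or 6 d for IgG). Biomarkers were read by ELISA, cytotoxicity by SRB, PBMC viability and proliferation by Alamar Blue. Each well value was divided by the mean of 8 DMSO control wells on the same plate and log10 transformed; duplicate blinded samples were tested at 4 concentrations.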

[2] = compound: NC(=O)C(F)(F)C(F)(F)C(F)(F)C(F)(F)F [Nonafluoropentanamide]; details: 2200 nM; in DMSO
Description: as §1

[3] = compound: COC(=O)CCC(F)(F)C(F)(F)C(F)(F)C(F)(F)F [Methyl 2H,2H,3H,3H-perfluoroheptanoate]; details: 2200 nM; in DMSO
Description: as §1

[4] = compound: NS(=O)(=O)C(F)(F)C(F)(F)C(F)(F)C(F)(F)C(F)(F)C(F)(F)F [Perfluorohexanesulfonamide]; details: 2200 nM; in DMSO
Description: as §1

[5] = compound: FC(F)(F)C(F)(F)C(F)(F)C(F)(F)C(F)(F)CCI [1-Iodo-1H,1H,2H,2H-perfluoroheptane]; details: 2200 nM; in DMSO
Description: as §1

[6] = compound: OCCC(F)(F)C(F)(F)C(F)(F)C(F)(F)F [4:2 Fluorotelomer alcohol]; details: 2200 nM; in DMSO
Description: as §1

[7] = compound: O=S(=O)(O)C(F)(F)C(F)(F)OC(F)(F)C(F)(F)F [Perfluoro(2-ethoxyethane)sulfonic acid]; details: 2200 nM; in DMSO
Description: as §1

[8] = compound: OC(C(F)(F)F)(C(F)(F)F)C(O)(C(F)(F)F)C(F)(F)F [Perfluoropinacol]; details: in DMSO
Description: as §1

[9] = compound: O=C(O)C(F)(F)C(F)(F)C(=O)O [Tetrafluorosuccinic acid]; details: 2200 nM; in DMSO
Description: as §1

[10] = compound: NC(=O)C(F)(F)C(F)(F)C(F)(F)C(F)(F)C(N)=O [Octafluoroadipamide]; details: 2200 nM; in DMSO
Description: as §1

[11] = compound: O=C(O)CCC(F)(F)C(F)(F)C(F)(F)C(F)(F)C(F)(F)F [2H,2H,3H,3H-Perfluorooctanoic acid]; details: 2200 nM; in DMSO
Description: as §1

[12] = compound: O=C(O)C(F)(F)C(F)(F)C(F)(F)C(F)(F)C(F)(F)C(F)(F)C(F)(F)C(F)(F)Cl [9-Chloro-perfluorononanoic acid]; details: in DMSO
Description: as §1

[13] = compound: C=C(C)C(=O)OCCC(F)(F)C(F)(F)C(F)(F)C(F)(F)C(F)(F)C(F)(F)C(F)(F)C(F)(F)F [8:2 Fluorotelomer methacrylate]; details: in DMSO
Description: as §1

[14] = compound: O=S(=O)(O)CCC(F)(F)C(F)(F)C(F)(F)C(F)(F)C(F)(F)C(F)(F)F [6:2 Fluorotelomer sulfonic acid]; details: in DMSO
Description: as §1

Test System	level (log10) ([1]; 740 nM)	level (log10) ([1]; 2200 nM)	level (log10) ([1]; 6700 nM)	level (log10) ([1]; 20000 nM)	level (log10) [2]	level (log10) [3]	level (log10) [4]	level (log10) [5]	level (log10) [6]	level (log10) [7]	level (log10) ([8]; 2200 nM)	level (log10) ([8]; 6700 nM)	level (log10) ([8]; 20000 nM)	level (log10) [9]	level (log10) [10]	level (log10) [11]	level (log10) ([12]; 2200 nM)	level (log10) ([12]; 6700 nM)	level (log10) ([12]; 20000 nM)	level (log10) ([13]; 740 nM)	level (log10) ([13]; 2200 nM)	level (log10) ([14]; 2200 nM)	level (log10) ([14]; 6700 nM)	level (log10) ([14]; 20000 nM)	level (log10) ([14]; 60000 nM)
HDF3CGF:Collagen III	-0.0095 ± 0.0078	0.002 ± 0.011	-0.0195 ± 0.05	0.0105 ± 0.05	0.021 ± 0.057	-0.0215 ± 0.036	0.0385 ± 0.046	0.002 ± 0.024	-0.04 ± 0.1	-0.056 ± 0.13	0.008 ± 0.023	0.0175 ± 0.0078	-0.0845 ± 0.0064	-0.064 ± 0.071	0.023 ± 0.068	-0.0705 ± 0.019	-0.0655 ± 0.064	-0.0835 ± 0.046	-0.235 ± 0.061	-0.0125 ± 0.0064	-0.039 ± 0.068	-0.0495 ± 0.023	-0.0555 ± 0.015	-0.0115 ± 0.019	0.03 ± 0.093
HDF3CGF:CXCL9/MIG	0.0135 ± 0.025	0.004 ± 0.0085	0.0135 ± 0.00071	0.0095 ± 0.011	0.004 ± 0.011	0.0045 ± 0.029	-0.0075 ± 0.015	-0.055 ± 0.04	0.005 ± 0.013	0.0095 ± 0.0021	-0.0395 ± 0.012	-0.018 ± 0.018	-0.0675 ± 0.012	0.0055 ± 0.049	-0.0035 ± 0.025	-0.035 ± 0.051	-0.041 ± 0.033	-0.047 ± 0.02	-0.142 ± 0.04	-0.001 ± 0.0014	-0.0025 ± 0.018	-0.0165 ± 0.036	-0.013 ± 0.048	-0.0395 ± 0.018	-0.046 ± 0.038
MyoF:SRB	0.0005 ± 0.005	0.0085 ± 0.0064	0.001 ± 0.014	-0.0035 ± 0.0078	0.003 ± 0.0099	-0.0035 ± 0.0064	-0.014 ± 0.014	-0.0155 ± 0.022	0.0005 ± 0.011	-0.0005 ± 0.00071	-0.01 ± 0.0014	-0.012	-0.0445 ± 0.0021	0.0055 ± 0.0035	-0.006 ± 0.0071	0.0035 ± 0.013	-0.002 ± 0.014	-0.004	-0.0605 ± 0.005	-0.0025 ± 0.0092	0.001 ± 0.0028	-0.006 ± 0.0099	-0.002 ± 0.0014	0.0005 ± 0.0092	-0.0015 ± 0.0021
BT:sIL-6	-0.0195 ± 0.04	-0.01 ± 0.041	-0.0095 ± 0.025	0.0305 ± 0.073	0.025 ± 0.038	0.0395 ± 0.022	0.0055 ± 0.025	-0.003 ± 0.042	-0.001 ± 0.045	0.064 ± 0.072	-0.009 ± 0.0028	-0.073 ± 0.051	-0.0655 ± 0.019	-0.038 ± 0.0071	0.051 ± 0.051	0.0455 ± 0.023	-0.0445 ± 0.063	0.0155 ± 0.022	0.0135 ± 0.018	0.001 ± 0.028	0.256 ± 0.32	0.0565 ± 0.0078	0.0255 ± 0.039	0.0375 ± 0.016	0.003 ± 0.052
MyoF:MMP-1	-0.029 ± 0.013	-0.062 ± 0.0014	-0.023 ± 0.0057	-0.0365 ± 0.074	0.0035 ± 0.046	0.0355 ± 0.087	0.0185 ± 0.079	0.0105 ± 0.03	0.0045 ± 0.08	-0.0005 ± 0.018	0.0095 ± 0.013	-0.0075 ± 0.012	-0.027 ± 0.0042	0.0165 ± 0.11	0.0205 ± 0.1	-0.015 ± 0.067	-0.0135 ± 0.061	-0.028 ± 0.03	-0.0585 ± 0.0064	-0.0095 ± 0.073	0.0175 ± 0.026	-0.0105 ± 0.044	-0.018 ± 0.021	-0.058 ± 0.0042	-0.0145 ± 0.047
KF3CT:CXCL10/IP-10	-0.001 ± 0.03	-0.017 ± 0.027	-0.0085 ± 0.012	-0.0325 ± 0.00071	-0.0125 ± 0.0021	-0.002 ± 0.021	-0.0095 ± 0.03	-0.0005 ± 0.0078	0.004 ± 0.0085	-0.004 ± 0.0085	-0.006 ± 0.0057	0.0025 ± 0.0035	-0.0205 ± 0.0064	0.005 ± 0.0014	-0.0005 ± 0.021	-0.01 ± 0.0071	-0.0105 ± 0.0064	-0.0235 ± 0.0035	-0.0715 ± 0.0092	0.001 ± 0.0014	-0.002 ± 0.0028	0.0035 ± 0.0035	-0.0105 ± 0.011	-0.0055 ± 0.015	-0.0135 ± 0.00071
HDF3CGF:CD54/ICAM-1	-0.003	0.001 ± 0.0099	0.0005 ± 0.016	-0.0045 ± 0.026	-0.0085 ± 0.00071	-0.008 ± 0.0099	-0.001 ± 0.0028	0.0005 ± 0.0064	0.004 ± 0.0099	0.006 ± 0.023	-0.006 ± 0.011	0.012 ± 0.011	0.005 ± 0.018	-0.011 ± 0.0042	0.0165 ± 0.023	0.0065 ± 0.012	-0.036 ± 0.021	-0.077 ± 0.017	-0.112 ± 0.014	-0.0105 ± 0.04	0.001 ± 0.021	-0.001 ± 0.0099	-0.0085 ± 0.011	-0.007 ± 0.011	-0.029 ± 0.014
BT:PBMC Cytotoxicity	0.041	0.023 ± 0.014	0.004 ± 0.0057	0.007 ± 0.021	0.016 ± 0.018	0.0345 ± 0.011	0.0415 ± 0.07	0.0065 ± 0.061	-0.012 ± 0.0071	-0.0005 ± 0.029	-0.005 ± 0.0028	0.011 ± 0.017	-0.0095 ± 0.023	-0.0245 ± 0.019	0.009 ± 0.0042	0.034 ± 0.021	0.007 ± 0.024	0.015 ± 0.028	0.0355 ± 0.015	0.009 ± 0.027	-0.0065 ± 0.00071	0.0365 ± 0.03	0.007	0.0235 ± 0.0064	0.045 ± 0.0014
BE3C:tPA	-0.016 ± 0.0028	-0.004 ± 0.027	-0.0245 ± 0.00071	-0.0325 ± 0.021	0.016 ± 0.016	-0.002 ± 0.0057	-0.02 ± 0.03	-0.036 ± 0.051	-0.008	-0.0015 ± 0.0035	0.036 ± 0.0014	-0.0455 ± 0.0078	-0.224 ± 0.012	0.0175 ± 0.0064	-0.0085 ± 0.036	-0.0145 ± 0.022	0.0265 ± 0.04	0.0195 ± 0.023	-0.0985 ± 0.023	0.0095 ± 0.09	-0.0005 ± 0.088	0.0035 ± 0.047	-0.0025 ± 0.016	0.029 ± 0.02	0.05 ± 0.025
